Assay [1] addresses MYC-tagged MK2 (UniProt P49137). Nature of the assay: co-immunoprecipitation from 293T cells, IP anti-HA, blot anti-Myc.
For assay [2] the target is unchanged. Nature of the assay: co-immunoprecipitation from 293T cells, IP anti-HA, blot anti-Myc (FIG. 10B).

Sequences of proteins named here, by UniProt entry; tags and fusion partners are left off.
UniProt P49137: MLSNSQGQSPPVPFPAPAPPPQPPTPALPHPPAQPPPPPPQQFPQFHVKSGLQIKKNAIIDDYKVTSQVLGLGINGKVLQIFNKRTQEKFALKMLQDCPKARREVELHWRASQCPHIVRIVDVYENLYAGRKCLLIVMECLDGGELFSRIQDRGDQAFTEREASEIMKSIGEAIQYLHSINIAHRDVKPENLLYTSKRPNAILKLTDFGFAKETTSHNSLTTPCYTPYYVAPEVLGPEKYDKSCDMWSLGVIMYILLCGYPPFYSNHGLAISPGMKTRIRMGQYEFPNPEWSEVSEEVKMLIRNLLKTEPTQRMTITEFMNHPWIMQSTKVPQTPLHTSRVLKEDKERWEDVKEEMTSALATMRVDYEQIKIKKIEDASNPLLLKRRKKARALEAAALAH

These are yes or no findings as the source states them, for the method shown. Binding seen in cells or lysates may run through a third protein. Some entries that bind do so weakly or less than the wild type. Sequences can lack the tags named with a protein.

B1: HA-tagged HPH2 (protein, not shown: small tags and cut ends)
chain: MCLRGGCSPRAPAAAPQPRPPPALPPRPRAPVPASRPGRPLLTPARPCGRMRRGSPGPRLGGSRGERRRPAGRDPARVGPGQGLRRPARPGPAAWTETGQGIVHALTDLSIPGMTSGNGNSASSIAGTAPQNGENKPPQAIVKPQILTHVIEGFVIQEGADVSRWDARLLVGNLKKKYAQGFLPEKLPQQDHTTTTDSEMEEPYLQESKEEGAPLKLKCELCGRVDFAYKFKRSKRFCSMACAKRYNVGCTKRVGLFHSDRSKLQKAGAATHNRRRPAKPVCHHLPRIPRSSQQALCPFRLLLLCVTHSQEDSSRCSDNSSYEEPLSPISASSSTSAGDKASGTWSSPTCICGTWWAWDTTSCQVSHQVNVEDVYEFIRSLPGCQEIAEEFRAQEIDGQALLLLKEDHLMSVMNIKLGPALKIYARISMLKDS
On to B1, for which the binding result with MYC-tagged MK2 [1] and with MYC-tagged MK2 [2] was “binds” in each case.

For the origin of these results see patent US20060094101A1.
